In paper PMC5682668 one finds binding data, which are given here for one substance.

Chains of the proteins cited; added tags and fusions are not shown.
UniProt P15307: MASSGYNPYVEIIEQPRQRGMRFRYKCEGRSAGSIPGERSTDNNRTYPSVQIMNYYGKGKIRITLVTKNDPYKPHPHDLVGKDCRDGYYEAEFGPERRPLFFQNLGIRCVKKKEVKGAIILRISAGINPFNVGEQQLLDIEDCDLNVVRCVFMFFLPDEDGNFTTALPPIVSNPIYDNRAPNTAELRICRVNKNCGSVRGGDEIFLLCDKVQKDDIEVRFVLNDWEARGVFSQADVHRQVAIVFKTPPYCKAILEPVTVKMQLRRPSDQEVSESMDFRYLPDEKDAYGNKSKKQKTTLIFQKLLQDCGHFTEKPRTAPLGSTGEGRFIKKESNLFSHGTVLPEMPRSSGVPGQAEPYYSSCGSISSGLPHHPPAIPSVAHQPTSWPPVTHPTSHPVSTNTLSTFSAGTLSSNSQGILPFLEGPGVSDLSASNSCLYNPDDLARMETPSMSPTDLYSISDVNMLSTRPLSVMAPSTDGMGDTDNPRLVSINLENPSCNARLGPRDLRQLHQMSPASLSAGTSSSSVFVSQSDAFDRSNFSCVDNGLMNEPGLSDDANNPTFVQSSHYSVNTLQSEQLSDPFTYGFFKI
UniProt Q04207: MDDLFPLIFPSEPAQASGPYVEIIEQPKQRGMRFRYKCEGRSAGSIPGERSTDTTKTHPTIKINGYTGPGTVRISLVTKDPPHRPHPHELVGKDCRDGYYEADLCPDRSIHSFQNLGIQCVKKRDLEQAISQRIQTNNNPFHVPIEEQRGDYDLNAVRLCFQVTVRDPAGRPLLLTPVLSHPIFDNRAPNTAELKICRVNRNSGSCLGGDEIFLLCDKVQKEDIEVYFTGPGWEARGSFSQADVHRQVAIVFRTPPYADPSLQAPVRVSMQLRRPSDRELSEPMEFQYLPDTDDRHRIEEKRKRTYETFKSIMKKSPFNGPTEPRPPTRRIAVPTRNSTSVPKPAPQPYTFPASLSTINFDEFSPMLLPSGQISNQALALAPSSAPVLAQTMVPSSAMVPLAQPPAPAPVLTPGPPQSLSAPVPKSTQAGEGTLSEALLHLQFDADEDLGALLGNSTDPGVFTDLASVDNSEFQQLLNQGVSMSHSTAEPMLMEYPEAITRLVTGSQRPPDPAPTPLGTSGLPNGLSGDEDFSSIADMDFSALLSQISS

No constants are given. Whether binding was seen depends on the method and setting. Binding seen in cells or lysates may run through a third protein. Some entries that bind do so weakly or less than the wild type.

Assay [1] addresses c-Rel (mouse (endogenous in C57BL/6 RPE–choroid complexes)) (UniProt P15307). The experiment in a line: co-IP; endogenous proteins of mouse RPE–choroid complexes, 4 days after intravitreal injection of Aβ1-40 or PBS; Pierce Co-Immunoprecipitation Kit; precipitation with rabbit anti-RelA, anti-RelB/c-Rel or rabbit IgG, western blot with mouse antibodies. (In western blotting, separated proteins are transferred to a membrane and probed.)

The target in assay [2] is T1, RelB (mouse (endogenous in C57BL/6 RPE–choroid complexes)) (UniProt Q04863).
T1 sequence: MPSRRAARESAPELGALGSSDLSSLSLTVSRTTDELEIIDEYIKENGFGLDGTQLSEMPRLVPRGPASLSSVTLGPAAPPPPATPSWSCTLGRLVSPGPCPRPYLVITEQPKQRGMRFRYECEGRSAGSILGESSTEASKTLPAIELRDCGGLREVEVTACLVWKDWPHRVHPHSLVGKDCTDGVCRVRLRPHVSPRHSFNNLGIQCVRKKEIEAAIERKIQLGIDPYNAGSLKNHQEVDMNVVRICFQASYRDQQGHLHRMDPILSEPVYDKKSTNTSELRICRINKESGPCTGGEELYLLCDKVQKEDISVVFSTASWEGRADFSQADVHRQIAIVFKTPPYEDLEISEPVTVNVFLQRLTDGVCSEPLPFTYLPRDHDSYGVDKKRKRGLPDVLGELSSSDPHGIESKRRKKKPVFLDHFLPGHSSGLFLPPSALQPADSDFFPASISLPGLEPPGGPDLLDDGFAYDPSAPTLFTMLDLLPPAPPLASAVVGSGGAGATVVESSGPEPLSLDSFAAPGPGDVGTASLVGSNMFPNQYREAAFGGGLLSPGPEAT
Described as above.

For the substance RelA (p65) (from UniProt Q04207 1-549), the binding entry in assay [1] and in assay [2] was “binds” each time.
